Measurements from the supplement of paper PMC6078165.
The reference is the same well before dosing, and untreated signal decays as well.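 Labels refer to human fibroblasts, largely primary: uterine (C12385, HUF), lung (H6013), bone (Hs27A), adrenal (HADF), skin (WS1), plus mammary HMF and breast cancer-associated Hs343T. Cancer lines are basal-like or mesenchymal-like triple-negative breast cancer. The paper counts as hits responses shifting over 3x the replicate standard deviation. The tissue of the other fibroblasts is not given here.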

Test system: Hs578T
Assay: relative JC-1 red fluorescence (viability) vs pre-drug, coculture with fibroblast (fraction); higher = more viable cancer cells
Method: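 JC-1 labelled TNBC cells cocultured 1:1 (1,500 cells each) with CellTrace Violet stained primary or stromal fibroblasts in 384-well plates in FluoroBrite medium, treated with one of 42 anticancer drugs at 0.1, 1, 10 or 100 uM. JC-1 red fluorescence (mitochondrial integrity in cancer cells only) was read by plate reader every 8 h for 72 h. Values are normalised to each well's pre-drug value. The stock of one drug was tenfold lower, so its dose labels may be too high.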

CC(=O)c1c(C)c2cnc(Nc3ccc(N4CCNCC4)cn3)nc2n(C2CCCC2)c1=O [Palbociclib]
relative JC-1 red fluorescence
Conditions | 8 h | 16 h | 24 h | 32 h | 40 h | 48 h | 56 h | 64 h | 72 h
10 µM | 0.938 | 0.91 | 0.929 | 0.919 | 0.883 | 0.8649 | 0.867 | 0.819 | 0.809
100 µM | 0.838 | 0.667 | 0.584 | 0.535 | 0.476 | 0.436 | 0.428 | 0.401 | 0.382

relative JC-1 red fluorescence
Conditions | 8 h | 16 h | 24 h | 32 h | 40 h | 48 h | 56 h | 64 h | 72 h
10 µM, coculture fibroblast: C12385 | 0.8849 | 0.85174 | 0.8277 | 0.824 | 0.801 | 0.788 | 0.78 | 0.771 | 0.762
10 µM, coculture fibroblast: H6013 | 0.88 | 0.889 | 0.8031 | 0.834 | 0.901 | 0.836 | 0.798 | 0.92 | 0.821
10 µM, coculture fibroblast: H6019 | 0.835 | 0.833 | 0.855 | 0.8255 | 0.8287 | 0.821 | 0.792 | 0.774 | 0.758
10 µM, coculture fibroblast: H6076 | 0.967 | 0.818 | 0.825 | 0.888 | 0.874 | 0.934 | 0.913 | 0.914 | 0.904
10 µM, coculture fibroblast: H6231 | 0.932 | 0.792 | 0.684 | 0.663 | 0.615 | 0.597 | 0.557 | 0.537 | 0.516
10 µM, coculture fibroblast: HADF | 0.865 | 0.73 | 0.727 | 0.777 | 0.855 | 0.735 | 0.828 | 0.7735 | 0.805
10 µM, coculture fibroblast: HCFa | 0.866 | 0.948 | 0.839 | 0.937 | 0.901 | 0.889 | 0.805 | 0.787 | 0.907
10 µM, coculture fibroblast: HCPF | 0.89 | 0.9377 | 0.896 | 0.913 | 0.877 | 0.873 | 0.951 | 0.933 | 0.897
10 µM, coculture fibroblast: HHSteC | 0.806 | 0.713 | 0.749 | 0.827 | 0.819 | 0.771 | 0.752 | 0.917 | 0.979
10 µM, coculture fibroblast: HMF | 0.923 | 0.974 | 0.974 | 0.981 | 0.948 | 0.9454 | 0.916 | 0.889 | 0.878
10 µM, coculture fibroblast: HPFa | 0.812 | 0.842 | 0.794 | 0.765 | 0.872 | 0.898 | 0.881 | 0.894 | 0.874
10 µM, coculture fibroblast: HUF | 0.932 | 0.887 | 0.8903 | 0.841 | 0.8104 | 0.7874 | 0.7785 | 0.753 | 0.732
10 µM, coculture fibroblast: Hs27A | 0.868 | 0.791 | 0.782 | 0.7721 | 0.8351 | 0.857 | 0.776 | 0.837 | 0.833
10 µM, coculture fibroblast: Hs343T | 0.9595 | 0.921 | 0.918 | 0.935 | 0.904 | 0.923 | 0.913 | 0.897 | 0.904
10 µM, coculture fibroblast: WS1 | 0.886 | 0.9098 | 0.8921 | 0.90664 | 0.905 | 0.90751 | 0.8875 | 0.8647 | 0.839
100 µM, coculture fibroblast: C12385 | 0.678 | 0.467 | 0.456 | 0.348 | 0.301 | 0.271 | 0.248 | 0.232 | 0.219
100 µM, coculture fibroblast: H6013 | 0.43 | 0.27 | 0.23 | 0.202 | 0.175 | 0.161 | 0.14 | 0.125 | 0.1
100 µM, coculture fibroblast: H6019 | 0.688 | 0.409 | 0.411 | 0.33 | 0.314 | 0.295 | 0.282 | 0.277 | 0.262
100 µM, coculture fibroblast: H6076 | 0.855 | 0.605 | 0.529 | 0.479 | 0.438 | 0.43 | 0.419 | 0.409 | 0.404
100 µM, coculture fibroblast: H6231 | 0.839 | 0.619 | 0.513 | 0.513 | 0.449 | 0.43 | 0.402 | 0.384 | 0.372
100 µM, coculture fibroblast: HADF | 0.46 | 0.254 | 0.208 | 0.185 | 0.166 | 0.158 | 0.142 | 0.134 | 0.113
100 µM, coculture fibroblast: HCFa | 0.613 | 0.385 | 0.323 | 0.283 | 0.245 | 0.233 | 0.212 | 0.195 | 0.171
100 µM, coculture fibroblast: HCPF | 0.934 | 0.72 | 0.55 | 0.509 | 0.427 | 0.404 | 0.395 | 0.359 | 0.343
100 µM, coculture fibroblast: HHSteC | 0.573 | 0.368 | 0.314 | 0.274 | 0.243 | 0.221 | 0.201 | 0.182 | 0.155
100 µM, coculture fibroblast: HMF | 0.88 | 0.574 | 0.475 | 0.442 | 0.38 | 0.355 | 0.335 | 0.312 | 0.302
100 µM, coculture fibroblast: HPFa | 0.755 | 0.475 | 0.399 | 0.338 | 0.301 | 0.275 | 0.246 | 0.229 | 0.197
100 µM, coculture fibroblast: HUF | 0.698 | 0.483 | 0.423 | 0.319 | 0.273 | 0.244 | 0.219 | 0.199 | 0.183
100 µM, coculture fibroblast: Hs27A | 0.501 | 0.316 | 0.229 | 0.204 | 0.178 | 0.17 | 0.15 | 0.143 | 0.114
100 µM, coculture fibroblast: Hs343T | 0.905 | 0.463 | 0.398 | 0.368 | 0.314 | 0.289 | 0.273 | 0.252 | 0.244
100 µM, coculture fibroblast: WS1 | 0.488 | 0.296 | 0.279 | 0.203 | 0.166 | 0.15 | 0.134 | 0.123 | 0.111
